These are yes or no findings as the source states them, for the method shown. For some of these results: Binding seen in cells or lysates may run through a third protein. Some binding calls cover weakened binding; strength is not graded here.

Sequences of proteins named here, by UniProt entry; tags and fusion partners are left off. Residues count along the entry.
UniProt O00487: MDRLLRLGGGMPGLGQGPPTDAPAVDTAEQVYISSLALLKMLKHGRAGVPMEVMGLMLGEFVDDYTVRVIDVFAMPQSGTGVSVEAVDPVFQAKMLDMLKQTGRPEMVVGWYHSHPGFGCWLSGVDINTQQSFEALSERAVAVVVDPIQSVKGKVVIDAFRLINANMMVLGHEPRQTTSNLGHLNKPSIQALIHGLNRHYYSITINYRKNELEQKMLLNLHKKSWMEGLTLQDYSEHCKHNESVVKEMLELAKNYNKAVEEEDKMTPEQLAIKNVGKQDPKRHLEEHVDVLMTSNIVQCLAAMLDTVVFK
UniProt P49721: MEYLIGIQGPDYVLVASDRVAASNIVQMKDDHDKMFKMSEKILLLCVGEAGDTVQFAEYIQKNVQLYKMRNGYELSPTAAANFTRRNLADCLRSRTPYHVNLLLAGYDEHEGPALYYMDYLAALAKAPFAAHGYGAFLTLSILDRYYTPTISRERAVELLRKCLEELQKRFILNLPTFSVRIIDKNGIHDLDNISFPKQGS
UniProt Q5VYK3: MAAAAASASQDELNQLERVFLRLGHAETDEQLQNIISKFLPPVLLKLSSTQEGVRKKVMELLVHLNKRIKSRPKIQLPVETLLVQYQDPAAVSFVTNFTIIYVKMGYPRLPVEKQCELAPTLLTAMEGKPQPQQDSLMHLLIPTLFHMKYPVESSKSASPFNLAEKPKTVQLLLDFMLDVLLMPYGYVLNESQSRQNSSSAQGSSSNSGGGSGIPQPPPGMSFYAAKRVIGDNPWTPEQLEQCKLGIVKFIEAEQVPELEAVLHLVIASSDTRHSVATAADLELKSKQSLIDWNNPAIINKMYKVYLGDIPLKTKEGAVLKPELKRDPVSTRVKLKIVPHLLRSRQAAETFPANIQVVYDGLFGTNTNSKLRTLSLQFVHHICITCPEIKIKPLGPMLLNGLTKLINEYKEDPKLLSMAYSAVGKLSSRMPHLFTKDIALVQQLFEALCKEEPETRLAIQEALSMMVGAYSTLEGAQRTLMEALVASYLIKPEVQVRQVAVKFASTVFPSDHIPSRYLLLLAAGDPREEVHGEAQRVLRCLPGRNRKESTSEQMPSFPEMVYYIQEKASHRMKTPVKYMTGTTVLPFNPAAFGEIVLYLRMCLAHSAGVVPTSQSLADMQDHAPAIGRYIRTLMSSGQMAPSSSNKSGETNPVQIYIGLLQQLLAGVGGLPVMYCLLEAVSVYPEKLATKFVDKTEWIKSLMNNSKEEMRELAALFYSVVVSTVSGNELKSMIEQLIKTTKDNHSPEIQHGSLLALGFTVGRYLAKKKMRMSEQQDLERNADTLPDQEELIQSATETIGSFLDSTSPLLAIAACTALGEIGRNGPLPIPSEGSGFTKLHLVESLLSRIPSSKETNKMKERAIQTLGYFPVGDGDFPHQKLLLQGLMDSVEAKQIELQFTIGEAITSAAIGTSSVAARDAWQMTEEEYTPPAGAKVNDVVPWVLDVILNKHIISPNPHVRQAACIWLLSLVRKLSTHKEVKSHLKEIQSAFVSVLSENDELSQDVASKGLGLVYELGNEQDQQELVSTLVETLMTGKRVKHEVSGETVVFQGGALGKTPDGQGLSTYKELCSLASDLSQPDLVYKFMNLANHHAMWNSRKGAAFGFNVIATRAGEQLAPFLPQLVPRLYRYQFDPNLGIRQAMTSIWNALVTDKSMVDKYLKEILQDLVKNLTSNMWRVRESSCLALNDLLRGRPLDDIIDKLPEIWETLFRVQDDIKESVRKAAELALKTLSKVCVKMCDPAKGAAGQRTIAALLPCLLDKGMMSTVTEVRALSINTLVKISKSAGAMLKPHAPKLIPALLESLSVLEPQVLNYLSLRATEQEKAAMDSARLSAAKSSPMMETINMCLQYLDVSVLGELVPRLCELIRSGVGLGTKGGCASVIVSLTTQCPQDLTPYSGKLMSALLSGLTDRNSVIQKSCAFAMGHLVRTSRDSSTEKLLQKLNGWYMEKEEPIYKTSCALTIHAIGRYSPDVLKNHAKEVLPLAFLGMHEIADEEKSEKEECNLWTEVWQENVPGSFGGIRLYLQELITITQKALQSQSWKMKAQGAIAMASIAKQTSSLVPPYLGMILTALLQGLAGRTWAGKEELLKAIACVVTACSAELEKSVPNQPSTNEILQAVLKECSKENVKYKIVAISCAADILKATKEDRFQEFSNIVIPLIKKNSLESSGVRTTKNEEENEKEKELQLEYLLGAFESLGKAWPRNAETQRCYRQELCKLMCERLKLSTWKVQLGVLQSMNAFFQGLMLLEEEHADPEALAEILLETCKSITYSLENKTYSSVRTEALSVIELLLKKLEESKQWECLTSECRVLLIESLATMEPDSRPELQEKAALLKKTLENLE
UniProt P28072, residues 35-239: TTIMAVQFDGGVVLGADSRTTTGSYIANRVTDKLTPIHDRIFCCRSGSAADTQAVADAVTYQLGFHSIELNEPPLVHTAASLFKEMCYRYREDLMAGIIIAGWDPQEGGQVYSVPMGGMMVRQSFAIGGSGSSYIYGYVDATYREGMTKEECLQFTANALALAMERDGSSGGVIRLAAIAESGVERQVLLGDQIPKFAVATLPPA
UniProt P54725: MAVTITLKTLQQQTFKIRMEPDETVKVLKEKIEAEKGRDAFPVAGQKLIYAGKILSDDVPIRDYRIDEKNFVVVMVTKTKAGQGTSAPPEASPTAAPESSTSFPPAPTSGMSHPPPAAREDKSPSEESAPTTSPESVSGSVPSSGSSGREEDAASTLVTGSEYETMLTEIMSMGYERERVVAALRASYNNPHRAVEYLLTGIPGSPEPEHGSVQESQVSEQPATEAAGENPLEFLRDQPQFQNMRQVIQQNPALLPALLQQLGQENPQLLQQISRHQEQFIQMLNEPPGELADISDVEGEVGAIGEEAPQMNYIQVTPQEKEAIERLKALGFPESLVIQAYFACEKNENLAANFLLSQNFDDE
UniProt P54727: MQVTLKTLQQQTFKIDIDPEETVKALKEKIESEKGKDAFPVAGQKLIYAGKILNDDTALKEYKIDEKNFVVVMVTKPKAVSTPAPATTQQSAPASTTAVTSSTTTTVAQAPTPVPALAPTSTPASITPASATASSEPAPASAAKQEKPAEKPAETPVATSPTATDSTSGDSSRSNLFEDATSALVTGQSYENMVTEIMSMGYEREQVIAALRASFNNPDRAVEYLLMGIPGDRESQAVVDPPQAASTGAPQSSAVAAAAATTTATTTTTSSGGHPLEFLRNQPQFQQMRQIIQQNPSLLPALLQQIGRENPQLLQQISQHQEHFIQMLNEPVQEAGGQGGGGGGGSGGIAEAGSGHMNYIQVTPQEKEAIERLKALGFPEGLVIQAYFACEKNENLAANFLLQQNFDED

Assay [1] deals with PSMD14-HB (19S subunit PSMD14 tagged with TEV protease-cleavable hexahistidine-biotin) (human) (UniProt O00487). The assay is described as follows: native gel or EMSA. (In general: A gel shift assay detects complexes by their altered migration in electrophoresis.)
Assay [2] has as its target PSMB2-HB (20S subunit PSMB2 tagged with TEV protease-cleavable hexahistidine-biotin) (human) (UniProt P49721). The assay is described as follows: pull-down.
The target in assay [3] is PSMD14-HB (19S subunit PSMD14 tagged with TEV protease-cleavable hexahistidine-biotin) (human) (UniProt O00487). The assay is described as follows: pull-down.

Regarding “Ecm29 proteasome adaptor and scaffold (ECPAS) (from UniProt Q5VYK3 1-1845)”, the binding entry in assay [1], in assay [2] and in assay [3] was “binds” in each case.

On to PSMB6 (from UniProt P28072 35-239), for which the binding result in assay [2] was “binds”.

Regarding RAD23A (from UniProt P54725 1-363), the binding result in assay [2] is “binds”.

Turning to RAD23B (from UniProt P54727 1-409), in assay [2], the binding result is given as “binds”.

On to VCP/p97 (from UniProt P55072 1-806), for which the binding result in assay [2] is “binds”.

The record behind these values is doi:10.1101/2022.06.06.495046.
